Laboratory results taken from publication PMC8492855.
No constants are given. Whether binding was seen depends on the method and setting. In cells and extracts the contact can be indirect. Some results given as binding are weak or reduced against the parent protein; the word gives no strength.

By UniProt entry, the sequences of proteins in these tests, tags left out.
UniProt Q00613: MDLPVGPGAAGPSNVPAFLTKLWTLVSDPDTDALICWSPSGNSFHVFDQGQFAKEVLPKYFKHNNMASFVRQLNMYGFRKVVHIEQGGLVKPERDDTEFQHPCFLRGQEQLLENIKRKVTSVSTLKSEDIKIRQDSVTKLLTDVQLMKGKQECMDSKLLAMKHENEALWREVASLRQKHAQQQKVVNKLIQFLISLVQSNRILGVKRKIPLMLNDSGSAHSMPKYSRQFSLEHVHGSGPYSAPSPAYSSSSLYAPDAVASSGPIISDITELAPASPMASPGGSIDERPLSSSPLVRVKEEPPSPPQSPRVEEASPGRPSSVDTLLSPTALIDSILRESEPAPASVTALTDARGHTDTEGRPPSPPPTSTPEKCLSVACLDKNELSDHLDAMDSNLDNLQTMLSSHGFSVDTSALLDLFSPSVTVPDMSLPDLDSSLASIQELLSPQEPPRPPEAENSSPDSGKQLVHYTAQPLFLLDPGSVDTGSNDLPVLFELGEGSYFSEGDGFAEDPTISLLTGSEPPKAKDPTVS
UniProt Q03933: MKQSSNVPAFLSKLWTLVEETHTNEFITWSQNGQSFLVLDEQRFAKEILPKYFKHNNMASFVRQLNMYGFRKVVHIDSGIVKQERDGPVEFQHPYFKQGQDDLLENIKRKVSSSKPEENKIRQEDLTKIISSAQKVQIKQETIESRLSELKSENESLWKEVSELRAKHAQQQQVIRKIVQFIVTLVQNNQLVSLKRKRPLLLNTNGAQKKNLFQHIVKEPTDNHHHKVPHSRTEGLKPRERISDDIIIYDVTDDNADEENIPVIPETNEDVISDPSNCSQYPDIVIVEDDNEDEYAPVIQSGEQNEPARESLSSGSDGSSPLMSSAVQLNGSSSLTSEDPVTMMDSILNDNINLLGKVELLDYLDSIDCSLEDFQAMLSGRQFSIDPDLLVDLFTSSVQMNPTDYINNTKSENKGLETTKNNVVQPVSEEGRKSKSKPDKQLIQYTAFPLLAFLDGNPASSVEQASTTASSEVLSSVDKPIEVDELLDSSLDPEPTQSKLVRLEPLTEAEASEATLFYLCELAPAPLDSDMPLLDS

How the values were obtained:
FLAG-HSP90β E42A (human) [1] = target: FLAG-HSP90β E42A (human) (UniProt P08238); experiment: co-IP; anti-FLAG M2 affinity beads on 700 μg lysate (TGNET buffer: 50 mM Tris HCl pH 7.5, 5% glycerol, 100 mM NaCl, 2 mM EDTA, 0.5% Triton X-100) of transfected HEK293 cells, 2 h at 4 °C, no crosslinking, immunoblot; control cells and cells treated with GB (1.5-1.6 μM), GBA (3.2 μM), 17-AAG, celastrol or heat shock
FLAG-HSP90β E42A (human) [2] = target: FLAG-HSP90β E42A (human) (UniProt P08238); experiment: condition: only cells treated with 10 μM 17-AAG for 4 h; co-IP; as a1, cells treated with 10 μM 17-AAG for 4 h before lysis
FLAG-HSP90α E47A (human) = FLAG-HSP90α E47A (human) (UniProt P07900); experiment: co-IP; anti-FLAG M2 affinity beads on 700 μg lysate (TGNET buffer: 50 mM Tris HCl pH 7.5, 5% glycerol, 100 mM NaCl, 2 mM EDTA, 0.5% Triton X-100) of transfected HEK293 cells, 2 h at 4 °C, no crosslinking, immunoblot; control cells and cells treated with GB (1.5-1.6 μM), GBA (3.2 μM), 17-AAG, celastrol or heat shock

| Substance | binding (FLAG-HSP90β E42A (human) [1]) | binding (FLAG-HSP90β E42A (human) [2]) | binding (FLAG-HSP90α E47A (human)) |
| --- | --- | --- | --- |
| Myc-His-HSF1 WT (from UniProt Q00613 1-529) | binds | no binding |  |
| endogenous HSF2 (from UniProt Q03933 1-536) | binds |  | binds |
